Values from PubChem BioAssay AID686937 (Drosophila RNAi Screening Center, 2013)
Purpose: 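Genes in the fly needed for secretion of protein constitutively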 (primary screen). Cells: Drosophila S2 cells expressing secreted horseradish peroxidase. Reagent: long dsRNA against Drosophila genes. Duration: about 5.5 days (5 days dsRNA, then 12 h reporter induction). Treatment: reporter expression induced after 5 days of dsRNA, read 12 h later; inducer not stated. Measurement: 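After 5 days of dsRNA and 12 h of reporter induction, medium peroxidase read by chemiluminescence and scored as per-plate z-score; higher values mean more reporter released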. Scale: z-score: higher = more reporter secreted into medium.
In all, the deposit lists about 23,000 reagents; this is a random part of those with a known target gene and a result. 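Reduced-secretion tags in replicate 1 do not always agree with the z-scores; no criterion for assigning the tags was given.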 The numbers tell different reagents against one gene apart. Names joined by + are all predicted targets of the reagent. Not all columns of the deposit are shown. Reagent sequences are not shown. The record does not give: the amount of reagent.

z-score, replicate 1, by gene knocked down and reagent
CG10467: #1 0.16
Ir92a: #1 0.22
CG15012: #1 0.58
CG2694: #1 0.22
Gr63a: #1 0.15
cav: #1 0.3
RanBPM: #1 0.76
CG4267: #1 -0.61; #2 0.26
NdufA3: #1 0.32
CG17190: #1 0.46
CG5805: #1 0.39
CycK: #1 0.54
CG9497: #1 -0.04
hdm: #1 0.4
Atpalpha: #1 0.13
CG31126: #1 0.4
CecA2: #1 0.39
Mau2: #1 0.48
CG7330: #1 0.2; #2 0.32
Rh4: #1 0.31
retinin: #1 -0.01
CG18549: #1 0.35
CG13318: #1 0.41
mRpS35: #1 -0.01
Tsen54: #1 0.38
atlas: #1 0.39
asRNA:CR43430 + hts: #1 0.09
S1P: #1 -0.15
Hira: #1 -0.07
dpr11: #1 0.11; #2 0.13; #3 -0.03

Records listed so far whose target name begins with H or h:
z-score, replicate 1, by gene knocked down and reagent
hdm: #1 0.4
Hira: #1 -0.07

Additional entries:
z-score, replicate 1, by gene knocked down and reagent
CG18598: #1 0.26
CG12171: #1 0.24
CG11454: #1 0.06
Alp12: #1 -0.01
mRpL11: #1 0.17
moi + Tgs1: #1 -0.3
CG6836: #1 0.43
me31B: #1 -1.68
mRpL30: #1 -0.71
usp: #1 0.46
babos: #1 0.36; #2 -0.09
CG16727: #1 0.32
CG10660: #1 -2.45
CG13055: #1 -0.14
CG15601: #1 0.19
CG43084: #1 0.02
cato: #1 0.37
lok: #1 0.34
alpha-Est10: #1 0.23
Jhbp12: #1 0.11
Femcoat: #1 0.3
CG30430: #1 1.56
CG8562: #1 -0.05
bgcn: #1 0.3; #2 0.22
CG14757: #1 0.24
Prp3: #1 -3.21
asRNA:CR42547 + CG15674: #1 -0.02
l(2)gl: #1 0.57
Sbds: #1 0.28
fzr2: #1 0.34
CG30280: #1 1.31
homer: #1 0.39
hppy: #1 0.27; #2 0.44; #3 0.18
Tim9a: #1 0.44
PrBP: #1 0.73
RpS21: #1 -0.04
Mid1: #1 -0.01; #2 0.32; #3 0.04; #4 -0.69; #5 0
CG14352: #1 0.4
cnn: #1 0.51; #2 -0.13
